In article PMC12148412:
These are yes or no findings as the source states them, for the method shown. In cells and extracts the contact can be indirect. Some results given as binding are weak or reduced against the parent protein; the word gives no strength. For some of these results: Sequences can lack the tags named with a protein.

The chains behind the UniProt entries cited, without tags or fusion partners. Where a name states a change or a piece, a line headed by the entry shows the natural chain unless it says otherwise. A line that says so, or that is headed by a name, gives the form on record, which may keep a tag or linker. Residues count along the entry.
UniProt Q8R4B8: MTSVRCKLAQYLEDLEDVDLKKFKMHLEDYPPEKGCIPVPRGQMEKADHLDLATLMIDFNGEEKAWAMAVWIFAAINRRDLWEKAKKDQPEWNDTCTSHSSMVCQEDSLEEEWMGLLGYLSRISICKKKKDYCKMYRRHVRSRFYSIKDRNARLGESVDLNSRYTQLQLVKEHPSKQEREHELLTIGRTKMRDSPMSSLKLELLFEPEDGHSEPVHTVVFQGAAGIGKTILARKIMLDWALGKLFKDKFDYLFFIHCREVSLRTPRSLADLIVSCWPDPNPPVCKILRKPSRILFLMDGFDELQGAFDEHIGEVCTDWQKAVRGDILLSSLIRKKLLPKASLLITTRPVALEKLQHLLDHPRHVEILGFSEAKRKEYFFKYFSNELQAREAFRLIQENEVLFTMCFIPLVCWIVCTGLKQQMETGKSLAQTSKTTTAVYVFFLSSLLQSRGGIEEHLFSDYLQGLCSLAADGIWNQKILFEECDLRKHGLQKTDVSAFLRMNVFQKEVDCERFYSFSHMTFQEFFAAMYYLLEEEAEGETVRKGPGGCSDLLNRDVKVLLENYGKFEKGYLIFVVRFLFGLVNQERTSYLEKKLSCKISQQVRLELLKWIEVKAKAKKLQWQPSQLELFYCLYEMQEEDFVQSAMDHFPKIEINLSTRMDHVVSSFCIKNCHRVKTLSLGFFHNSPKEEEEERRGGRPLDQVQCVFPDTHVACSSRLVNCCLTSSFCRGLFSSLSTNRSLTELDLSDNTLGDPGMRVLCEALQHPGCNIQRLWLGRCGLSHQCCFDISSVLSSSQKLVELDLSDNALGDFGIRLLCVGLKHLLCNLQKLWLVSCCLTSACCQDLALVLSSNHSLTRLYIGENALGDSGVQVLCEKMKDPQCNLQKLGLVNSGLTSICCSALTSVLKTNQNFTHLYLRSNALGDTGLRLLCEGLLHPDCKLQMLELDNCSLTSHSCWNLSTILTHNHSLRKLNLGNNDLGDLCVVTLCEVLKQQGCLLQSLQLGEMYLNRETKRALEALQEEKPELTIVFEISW
UniProt Q9ULZ3: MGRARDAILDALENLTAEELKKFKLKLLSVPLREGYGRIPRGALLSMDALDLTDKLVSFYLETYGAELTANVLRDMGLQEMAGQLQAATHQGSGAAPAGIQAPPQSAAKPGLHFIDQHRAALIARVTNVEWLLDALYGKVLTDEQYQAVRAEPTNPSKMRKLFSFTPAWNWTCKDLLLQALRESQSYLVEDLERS
UniProt Q96P20: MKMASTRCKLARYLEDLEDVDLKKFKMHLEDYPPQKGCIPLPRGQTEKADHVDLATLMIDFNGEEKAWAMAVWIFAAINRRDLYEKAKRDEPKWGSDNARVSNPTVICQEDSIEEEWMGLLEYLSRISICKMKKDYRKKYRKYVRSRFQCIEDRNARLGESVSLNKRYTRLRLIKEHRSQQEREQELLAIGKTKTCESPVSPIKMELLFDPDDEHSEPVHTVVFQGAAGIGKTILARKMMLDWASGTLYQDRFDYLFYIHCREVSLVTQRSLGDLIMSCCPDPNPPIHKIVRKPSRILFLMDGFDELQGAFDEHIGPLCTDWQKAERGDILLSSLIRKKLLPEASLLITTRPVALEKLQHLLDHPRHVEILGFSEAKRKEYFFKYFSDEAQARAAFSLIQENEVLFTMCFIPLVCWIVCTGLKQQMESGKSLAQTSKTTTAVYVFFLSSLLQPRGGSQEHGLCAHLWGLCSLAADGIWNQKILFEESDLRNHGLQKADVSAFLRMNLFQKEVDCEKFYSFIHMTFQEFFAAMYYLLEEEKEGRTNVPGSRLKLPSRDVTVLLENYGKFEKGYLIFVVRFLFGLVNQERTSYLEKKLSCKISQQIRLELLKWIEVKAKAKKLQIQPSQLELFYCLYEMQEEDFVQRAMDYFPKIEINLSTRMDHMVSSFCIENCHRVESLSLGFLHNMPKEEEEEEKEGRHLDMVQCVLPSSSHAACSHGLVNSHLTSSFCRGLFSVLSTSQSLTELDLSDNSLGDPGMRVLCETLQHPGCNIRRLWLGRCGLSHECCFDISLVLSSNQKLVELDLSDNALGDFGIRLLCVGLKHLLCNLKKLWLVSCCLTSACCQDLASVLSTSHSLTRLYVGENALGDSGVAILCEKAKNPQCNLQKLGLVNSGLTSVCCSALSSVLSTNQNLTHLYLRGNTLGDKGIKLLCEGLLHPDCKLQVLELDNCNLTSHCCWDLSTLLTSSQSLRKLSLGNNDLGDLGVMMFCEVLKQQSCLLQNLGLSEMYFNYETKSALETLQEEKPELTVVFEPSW
Myc-tagged NLRP3 PYD (amino acids 1-219): residues 1-219 of Q96P20
Myc-tagged NLRP3 NACHT (amino acids 220-741): residues 220-741 of Q96P20
Myc-tagged NLRP3 LRR (amino acids 742-1036): residues 742-1036 of Q96P20

T1: apoptosis-associated speck-like protein containing a CARD (ASC), endogenous in mouse BMDMs (mouse (endogenous in BMDM)) (UniProt Q9EPB4)
T1 sequence: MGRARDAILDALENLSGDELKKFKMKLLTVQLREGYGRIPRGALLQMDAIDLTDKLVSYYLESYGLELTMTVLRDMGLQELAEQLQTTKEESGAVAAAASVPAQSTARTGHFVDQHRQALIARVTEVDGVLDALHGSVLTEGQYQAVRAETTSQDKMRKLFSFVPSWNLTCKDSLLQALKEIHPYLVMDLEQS


Experiments:
[1] = molecular target: NLR family pyrin domain containing 3 (NLRP3), endogenous in mouse BMDMs (mouse (endogenous in BMDM)) (UniProt Q8R4B8); assay: co-IP; endogenous proteins in lysates of BMDMs (untreated, LPS, or LPS followed by nigericin); NETN lysis buffer, antibody on protein A/G magnetic beads, Western blot
[2] = molecular target: T1, apoptosis-associated speck-like protein containing a CARD (ASC), endogenous in mouse BMDMs (mouse (endogenous in BMDM)); assay: as above
Myc-tagged ASC = Myc-tagged ASC (UniProt Q9ULZ3); assay: co-IP; HEK293T cells co-transfected with Flag- and Myc-tagged constructs; NETN lysis buffer, antibody on protein A/G magnetic beads, Western blot
[3] = molecular target: Myc-tagged NLRP3 LRR (amino acids 742-1036) (UniProt Q96P20); assay: as above
[4] = molecular target: Myc-tagged NLRP3 NACHT (amino acids 220-741) (UniProt Q96P20); assay: as above
[5] = molecular target: Myc-tagged NLRP3 PYD (amino acids 1-219) (UniProt Q96P20); assay: as above
[6] = molecular target: Myc-tagged full-length NLRP3 (UniProt Q96P20); assay: as above

binding [1] | binding [2] | binding (Myc-tagged ASC) | binding [3] | binding [4] | binding [5] | binding [6] | Binder
binds | binds | – | – | – | – | – | FAM120A, endogenous in mouse BMDMs (protein, UniProt Q6A0A9 1-1112) MGVQGFQDYIEKHCPSAVVPVELQKLARGSLVGGGRQRPPQTPLRLLVDADNCLHRLYGGFYTDWVSGGQWNHMLGYLAALAKACFGGNIELFVFFNGALEKARLHEWVKRQGNERQTAQQIVSHVQNKGTPPPKVWFLPPVCMAHCIRLALIRFHVKVAQSIEDHHQEVIGFCRENGFHGLVAYDSDYALCNIPYYFSAHALKLSRNGKSLTTSQYLMHEVAKQLDLNPNRFPIFAALLGNHILPDEDLASFHWSLLGPEHPLASLKVRAHQLVLPPCDVVIKAVADYVRNIHDTSDLDAIAKDVFQHSQSRTDDKVIRFKRAVGYYSATSKPMPFHPPHYLARPNPFGMPGMVPPYVPPQMLNIPQTSLQAKPAVPQVPSPGGTPGQAPYPYSLSEPALTLDTSGKNLTEQNSYSNIPHEGKHTPLYERSSPINLAQSGSPNHVDSAYFPGSSTSSSSDNDEGGGGATNHISGNKIGWEKTGSHAEPLARGDPGDQVKVEGSSTASSGSQLAEGKGSHMGTVQPIPCLLSMPTRNHMDITTPPLPPVAPEVLRVAEHRHKKGLMYPYIFHILTKGEIKIAVSIEDEANKDLPPAALLYRPVRQYVYGVLFSLAESRKKTERLAFRKNRLPPEFSPLIIKEWAAYKGKSPQTPELVEALAFREWTCPNLKRLWLGKAVEDKNRRMRAFLACMRSDTPAMLNPANVPTHLMVLCCVLRYMVQWPGARILRRQELDAFLAQALSPKLYEPDQLQELKIDNLDPRGIQLSALFMSGVDMALFANDACGQPIPWEHCCPWMYFDGKLFQSKLLKASREKTPLIDLCDGQAEQAAKVEKMRQSILEGLSFSRQNHPLPFPPPPALPFYPASVYPRHFGPVPPSQGRGRGFAGVCGFGGHYGETVATGPYRAFRVTAASGHCGAFSGSDSSRTSKSQGGVQPIPSQGGKLEIAGTVVGHWAGSRRGRGGRGPFPLQVVSVGGPARGRPRGVISTPVIRTFGRGGRYYGRGYKSQGAIQGRPPYAASAEEVAKELKSKSGESKSSAVSLAENGVMAEEKPVPQLNGSTGDPRVPSHSESALNNDSKPCNTNPHLNALSTDSACRREAALEAAVLNKEE
– | – | binds | binds | binds | binds | binds | Flag-tagged FAM120A (protein, UniProt Q9NZB2 1-1118) MGVQGFQDYIEKHCPSAVVPVELQKLARGSLVGGGRQRPPQTPLRLLVDADNCLHRLYGGFYTDWVSGGQWNHMLGYLAALAKACFGGNIELFVFFNGALEKARLHEWVKRQGNERQTAQQIVSHVQNKGTPPPKVWFLPPVCMAHCIRLALIRFHVKVAQSIEDHHQEVIGFCRENGFHGLVAYDSDYALCNIPYYFSAHALKLSRNGKSLTTSQYLMHEVAKQLDLNPNRFPIFAALLGNHILPDEDLASFHWSLLGPEHPLASLKVRAHQLVLPPCDVVIKAVADYVRNIQDTSDLDAIAKDVFQHSQSRTDDKVIRFKRAIGYYSATSKPMSFHPPHYLAARPGPFGMPGMVPPHVPPQMLNIPQTSLQAKPVAPQVPSPGGAPGQGPYPYSLSEPAPLTLDTSGKNLTEQNSYSNIPHEGKHTPLYERSSPINPAQSGSPNHVDSAYFPGSSTSSSSDNDEGSGGATNHISGNKIGWEKTGSHSEPQARGDPGDQTKAEGSSTASSGSQLAEGKGSQMGTVQPIPCLLSMPTRNHMDITTPPLPPVAPEVLRVAEHRHKKGLMYPYIFHVLTKGEIKIAVSIEDEANKDLPPAALLYRPVRQYVYGVLFSLAESRKKTERLAFRKNRLPPEFSPVIIKEWAAYKGKSPQTPELVEALAFREWTCPNLKRLWLGKAVEDKNRRMRAFLACMRSDTPAMLNPANVPTHLMVLCCVLRYMVQWPGARILRRQELDAFLAQALSPKLYEPDQLQELKIENLDPRGIQLSALFMSGVDMALFANDACGQPIPWEHCCPWMYFDGKLFQSKLLKASREKTPLIDLCDGQADQAAKVEKMRQSVLEGLSFSRQSHTLPFPPPPALPFYPASAYPRHFGPVPPSQGRGRGFAGVCGFGGPYGETVATGPYRAFRVAAASGHCGAFSGSDSSRTSKSQGGVQPIPSQGGKLEIAGTVVGHWAGSRRGRGGRGPFPLQVVSVGGPARGRPRGVISTPVIRTFGRGGRYYGRGYKNQAAIQGRPPYAASAEEVAKELKSKSGESKSSAMSSDGSLAENGVMAEEKPAPQMNGSTGDARAPSHSESALNNDSKTCNTNPHLNALSTDSACRREAALEAAVLNKEE
